Results deposited as PubChem BioAssay AID504764 (Drosophila RNAi Screening Center, 2011)
Aim: 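Genes whose knock-down alters Notch-dependent transcription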 (primary screen). System: Drosophila Kc167 cells. Reagent: long dsRNA against Drosophila genes. Duration: about 5 days (4 days dsRNA, then 24 h after transfection). Conditions: transfection of constitutively active membrane-tethered Notch lacking the extracellular domain, read 24 h later. Detection: 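Firefly luciferase from an E(spl)m3 reporter with active Notch, plus control-promoter and uninduced reporter wells for normalisation; unnormalised counts, duplicate wells a and b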. Direction: induced reporter light, run 1, well a and induced reporter light, run 1, well b: higher = more light from the Notch target reporter with active Notch; control promoter light, run 1, well a and control promoter light, run 1, well b: higher = more light from the viral control promoter (cell number, transfection, viability); uninduced reporter light, run 1, well a: higher = more light from the Notch target reporter without active Notch. Hit rule: 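Hit if the duplicate-averaged log2 ratio of induced to control-promoter light gives a plate-wise z beyond ±2, or induced to uninduced beyond ±1.8; weak-control or discordant-duplicate wells dropped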. Calls: active = modifier hit (raised or lowered Notch signal); inactive = not a hit.
The screen tested about 22,000 reagents; shown is an unselected part of those that have a named target and a result. Of all reagents, 403 (1.9%) got an active call. 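Unnormalised raw counts per well; ratio z-scores behind the hit calls and whether each hit raises or lowers signal are not deposited.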 Not stated in the record: the amount of reagent.

| gene knocked down | PubChem SID | induced reporter light, run 1, well a | induced reporter light, run 1, well b | control promoter light, run 1, well a | control promoter light, run 1, well b | uninduced reporter light, run 1, well a | call |
| --- | --- | --- | --- | --- | --- | --- | --- |
| CG6901 | SID104195921 | 2.40e5 | 2.19e5 | 2.35e5 | 2.49e5 | 18915 | inactive |
| unc-104 | SID104187502 | 1.01e5 | 87955 | 1.10e5 | 1.01e5 | 7590 | inactive |
| ATP8B | SID104194753 | 72035 | 69170 | 77395 | 50605 | 17500 | inactive |
| Nup54 | SID104187074 | 2.25e5 | 1.45e5 | 1.38e5 | 1.31e5 | 15440 | inactive |
| CG9921 | SID104200012 | 2.04e5 | 2.11e5 | 2.59e5 | 2.33e5 | 13175 | inactive |
| CG9029 | SID104182921 | 1.67e5 | 1.41e5 | 1.40e5 | 1.43e5 | 10370 | inactive |
| MBD-like | SID104196788 | 74715 | 79550 | 84420 | 65200 | 3432 | inactive |
| CG1529 | SID104200307 | 87670 | 1.05e5 | 1.20e5 | 1.21e5 | 10660 | inactive |
| bwa | SID104181541 | 82045 | 75925 | 85100 | 66425 | 8238 | inactive |
| bwa | SID104182102 | 57895 | 42660 | 49705 | 42905 | 2750 | inactive |
| CG7430 | SID104190637 | 90050 | 55120 | 48915 | 50270 | 5240 | inactive |
| CG14306 (retired record) | SID104194577 | 1.93e5 | 1.67e5 | 1.78e5 | 1.89e5 | 11065 | inactive |
| CG18179 | SID104190095 | 1.71e5 | 1.26e5 | 1.34e5 | 1.35e5 | 12970 | inactive |
| Grl40a | SID104183469 | 92855 | 79630 | 94500 | 91800 | 9230 | inactive |
| CG8950 | SID104187092 | 95870 | 1.35e5 | 2.50e5 | 1.95e5 | 9215 | inactive |
| CG13615 | SID104194410 | 1.50e5 | 1.59e5 | 2.13e5 | 2.27e5 | 13500 | inactive |
| vsg | SID104190011 | 1.22e5 | 1.12e5 | 1.40e5 | 1.11e5 | 9928 | inactive |
| Nufip | SID104190189 | 1.25e5 | 1.28e5 | 1.05e5 | 1.29e5 | 11582 | inactive |
| CG34256 | SID104189374 | 2.28e5 | 1.94e5 | 3.46e5 | 2.80e5 | 17515 | inactive |
| Ptp4E | SID104198493 | 2.30e5 | 2.84e5 | 4.76e5 | 4.66e5 | 16805 | active |

Copied from the list.
For “control promoter light, run 1, well a”, CG13615 [SID104194410] is entered as 2.13e5
Under “control promoter light, run 1, well b”, CG9029 [SID104182921] reads 1.43e5
Value for CG7430 [SID104190637] in “control promoter light, run 1, well b”: 50270
